Binding data for one molecule are collected here from patent US20220296690A1 (Pieris, published 2022).

No constants are given. Whether binding was seen depends on the method and setting. Binding calls can cover weak binding; strength is not graded here. Sequences can lack the tags named with a protein.

The test concerns the target CTLA-4 stably expressed on the surface of Chinese Hamster Ovary cells (CHO::CTLA-4). In words: Flow cytometry on CHO::CTLA-4 cells; Jurkat culture supernatant, detected with rabbit anti-NGAL polyclonal antibody and Dylight594-labeled anti-rabbit antibody.

B1: Anticalin-based CTLA-4 antagonist with Strep-tag II, mature processed secreted form (SEQ ID NO: 28) (designed binder)
chain: QDSTSDLIPAPPLSKVPLQQNFQDNQFQGKWYVVGLAGNRILRQDQHPMLMYATIYELKEDKSYQVTSVISSHKKCLYPIATFVPGSQPGEFTLGNIKSYGDKVSYLVRVVSTNYNQHAMVFFKHADTNYESFSITLYGRTKELTSELKENFIRFSKSLGLPENHIVFPVPIDQCIDGSAWSHPQFEK
notes: also called anti-CTLA-4 Anticalin; αCTLA-4
Take B1: the binding entry is recorded as “binds”.
